From PMC4860961
These are yes or no findings as the source states them, for the method shown. Binding seen in cells or lysates may run through a third protein. Some entries that bind do so weakly or less than the wild type.

Amino acid sequences for entries named in this document (tags omitted). A change or cut given only in a name is not applied to a line headed by its entry. Residues count along the entry.
UniProt O00308: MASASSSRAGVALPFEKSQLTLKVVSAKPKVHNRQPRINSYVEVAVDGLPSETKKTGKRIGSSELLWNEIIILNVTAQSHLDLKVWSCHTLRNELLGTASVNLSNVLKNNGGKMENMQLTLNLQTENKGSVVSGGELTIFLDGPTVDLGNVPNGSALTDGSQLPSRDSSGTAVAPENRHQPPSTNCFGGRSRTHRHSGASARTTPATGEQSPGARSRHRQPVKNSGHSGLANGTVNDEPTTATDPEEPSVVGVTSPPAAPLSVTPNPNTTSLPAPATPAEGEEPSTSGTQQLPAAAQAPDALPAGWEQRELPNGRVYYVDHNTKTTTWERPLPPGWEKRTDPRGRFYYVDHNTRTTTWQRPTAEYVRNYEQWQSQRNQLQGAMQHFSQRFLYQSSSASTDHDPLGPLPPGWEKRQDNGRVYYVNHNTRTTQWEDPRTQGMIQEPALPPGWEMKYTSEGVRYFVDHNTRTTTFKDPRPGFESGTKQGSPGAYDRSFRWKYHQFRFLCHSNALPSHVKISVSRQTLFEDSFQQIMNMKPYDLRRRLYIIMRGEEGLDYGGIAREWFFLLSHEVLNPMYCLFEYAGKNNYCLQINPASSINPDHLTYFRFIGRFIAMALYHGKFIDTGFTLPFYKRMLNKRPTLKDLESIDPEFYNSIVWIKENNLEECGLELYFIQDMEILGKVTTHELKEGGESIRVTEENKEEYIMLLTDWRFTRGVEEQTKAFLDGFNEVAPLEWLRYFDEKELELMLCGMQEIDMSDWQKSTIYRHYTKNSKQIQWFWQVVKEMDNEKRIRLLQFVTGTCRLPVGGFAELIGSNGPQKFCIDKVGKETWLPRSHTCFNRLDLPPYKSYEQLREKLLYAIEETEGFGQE
Flag-WWP2 C2 domain (truncation mutant): residues 1-117 of O00308
Flag-WWP2 HECT domain (truncation mutant): residues 536-870 of O00308
UniProt Q96PU5: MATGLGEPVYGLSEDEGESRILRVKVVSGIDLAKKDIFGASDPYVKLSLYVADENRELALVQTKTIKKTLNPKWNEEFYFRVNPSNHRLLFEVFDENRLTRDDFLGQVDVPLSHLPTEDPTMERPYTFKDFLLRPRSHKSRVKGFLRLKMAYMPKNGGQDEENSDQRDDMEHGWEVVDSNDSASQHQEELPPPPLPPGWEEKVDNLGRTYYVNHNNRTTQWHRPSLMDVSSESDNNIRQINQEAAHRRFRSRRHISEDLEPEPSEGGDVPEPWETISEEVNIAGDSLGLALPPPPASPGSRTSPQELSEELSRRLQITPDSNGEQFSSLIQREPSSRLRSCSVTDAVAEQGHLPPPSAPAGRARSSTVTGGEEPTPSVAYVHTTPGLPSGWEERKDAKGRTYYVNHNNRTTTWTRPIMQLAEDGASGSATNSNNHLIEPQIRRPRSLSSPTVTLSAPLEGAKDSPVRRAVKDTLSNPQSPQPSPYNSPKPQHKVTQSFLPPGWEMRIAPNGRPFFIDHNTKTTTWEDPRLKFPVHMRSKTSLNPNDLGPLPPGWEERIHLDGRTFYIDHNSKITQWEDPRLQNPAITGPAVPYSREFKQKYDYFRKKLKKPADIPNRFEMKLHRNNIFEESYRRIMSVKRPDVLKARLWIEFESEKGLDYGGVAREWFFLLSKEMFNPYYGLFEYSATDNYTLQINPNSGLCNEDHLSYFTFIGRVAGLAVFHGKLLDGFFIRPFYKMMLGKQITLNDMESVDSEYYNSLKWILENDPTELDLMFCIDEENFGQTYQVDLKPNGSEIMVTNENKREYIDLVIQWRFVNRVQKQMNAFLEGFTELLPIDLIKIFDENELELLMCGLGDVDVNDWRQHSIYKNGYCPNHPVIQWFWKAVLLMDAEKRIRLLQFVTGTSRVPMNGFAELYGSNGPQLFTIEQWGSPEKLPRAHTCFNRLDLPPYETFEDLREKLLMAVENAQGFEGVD
UniProt Q9UM11: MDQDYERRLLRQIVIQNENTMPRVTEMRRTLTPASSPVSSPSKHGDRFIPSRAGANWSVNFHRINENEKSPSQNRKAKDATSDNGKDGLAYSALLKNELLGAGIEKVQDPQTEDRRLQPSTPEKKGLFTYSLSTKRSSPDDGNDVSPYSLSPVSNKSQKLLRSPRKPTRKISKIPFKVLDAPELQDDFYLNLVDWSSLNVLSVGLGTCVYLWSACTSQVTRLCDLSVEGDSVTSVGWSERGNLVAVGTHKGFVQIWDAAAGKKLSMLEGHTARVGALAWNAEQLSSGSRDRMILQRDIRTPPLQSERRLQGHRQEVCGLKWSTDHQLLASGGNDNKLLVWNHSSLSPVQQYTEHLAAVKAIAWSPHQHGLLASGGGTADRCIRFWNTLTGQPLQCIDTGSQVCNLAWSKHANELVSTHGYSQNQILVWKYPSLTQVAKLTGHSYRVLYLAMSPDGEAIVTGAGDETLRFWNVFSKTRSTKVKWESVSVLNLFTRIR

Key:
[1] = target: GST-C2 (purified C2 domain of WWP2) (human) (UniProt O00308); experiment: pull-down; GST-fusion proteins on Glutathione Sepharose 4B incubated with 35S-labeled in vitro transcribed and translated Cdh1 in NETN buffer (20 mM Tris pH 8.0, 100 mM NaCl, 1 mM EDTA, 0.5% NP-40), 3-4 h at 4 °C; autoradiography; only the target purified
GST-WWP2 (human) = GST-WWP2 (human) (UniProt O00308); experiment: as above
Flag-NEDD4L = Flag-NEDD4L (UniProt Q96PU5); experiment: co-IP; 293T cells transfected with Flag-, HA- or Myc-tagged constructs; 36 h after transfection 10 μM MG132 (10 h) before collecting; lysis in EBC buffer (50 mM Tris pH 7.5, 120 mM NaCl, 0.5% NP-40), washes in NETN buffer; for the WWP2 domains with and without added Cdh1
Flag-WWP1 = Flag-WWP1 (UniProt Q9H0M0); experiment: as above
Flag-WWP2 (human) = Flag-WWP2 (human) (UniProt O00308); experiment: as above
[2] = target: Flag-WWP2 C2 domain (truncation mutant) (human) (UniProt O00308); experiment: as above
[3] = target: Flag-WWP2 HECT domain (truncation mutant) (human) (UniProt O00308); experiment: as above

Measured: binding

35S-labeled in vitro transcribed and translated Cdh1 (from UniProt Q9UM11 1-496)
binds: [1] | GST-WWP2 (human)

HA-Cdh1 (from UniProt Q9UM11 1-496)
not listed: [1] | GST-WWP2 (human)
binds: all other assays above
